According to publication PMC7819943, “Rice protein-binding microarrays: a tool to detect cis-acting elements near promoter regions in rice”:
This is one part of the list.

Each sequence was assayed against T1, OsSMF1 (Oryza sativa, UniProt Q6ZLB0 1-436) (assay: protein-binding microarray (RPBM); PBS, 2% BSA, 51.3 ng/ul salmon testes DNA, 50 uM zinc acetate, 200 nM TF, 25 C, 1 h; high values mean tight binding). Conditions: protein: recombinant; tags: N-terminal polyhistidine and DsRed monomer fusion (pET32a); chain copies: 2; label: CyDye5-dUTP incorporated in the synthesized complementary strand; 3' TTTTT single-stranded linker to array surface; dsDNA, one strand shown.
T1 sequence: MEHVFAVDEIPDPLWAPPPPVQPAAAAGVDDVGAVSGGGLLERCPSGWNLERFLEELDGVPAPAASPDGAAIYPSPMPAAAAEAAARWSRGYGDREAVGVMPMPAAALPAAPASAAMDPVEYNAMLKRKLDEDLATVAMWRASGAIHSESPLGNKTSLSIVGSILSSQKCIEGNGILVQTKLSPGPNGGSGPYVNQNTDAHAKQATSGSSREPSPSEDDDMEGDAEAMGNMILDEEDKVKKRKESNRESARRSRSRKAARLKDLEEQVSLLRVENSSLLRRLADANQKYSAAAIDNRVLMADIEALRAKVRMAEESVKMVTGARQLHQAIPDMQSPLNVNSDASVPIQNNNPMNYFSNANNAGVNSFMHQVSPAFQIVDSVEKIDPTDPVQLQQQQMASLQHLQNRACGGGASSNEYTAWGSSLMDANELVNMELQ
Summary of the method: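 An Axon 4000B scanner gave the binding signal as per-feature fluorescence intensity in arbitrary units. This followed washing of a custom Agilent array that had been incubated for 1 h at 25 °C with 200 nM protein in PBS, 2% BSA, salmon testes DNA and 50 µM zinc acetate. The proteins were transcription factors fused at the N-terminus to polyhistidine and DsRed, expressed in E. coli BL21-CodonPlus and purified on Ni–NTA.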
In the case of “ATTTCACGCCGATCTGTGATATATCCGAGTCCTAGTGGACCGGAGTCACCTAGTGCAG”, the binding signal is reported as 3150 fluorescence intensity (a.u.).
“CGCGGCAGATCCGCTGGTTGTGGCGGCGTCAGCGGTAGCCCGGAGTCACCTAGTGCAG” was tested, and the binding signal was 4030 fluorescence intensity (a.u.).
In the case of “GGGCATTGTGGAACCAGAGTTGATGACGAACCTATGTAGTCGGAGTCACCTAGTGCAG”, the binding signal is reported as 4280 fluorescence intensity (a.u.).
For “ATGTTAGAACACCTTCCTCTCCTGTATCCGTGGAGCAGCTCGGAGTCACCTAGTGCAG”, the binding signal was 3550 fluorescence intensity (a.u.).
“CATTGATGAACTTGACTTAATTAACGTGCACGTACCTTAACGGAGTCACCTAGTGCAG” was tested, and the binding signal was 3440 fluorescence intensity (a.u.).
In the case of “AGGGGAAGCAGTTTGCCAAATTTTACGGAGCAAACTCAAACGGAGTCACCTAGTGCAG”, the binding signal is reported as 23800 fluorescence intensity (a.u.).
For “GTGGCGCGCTACAACGTGCCGCTCTACGTGACGTGGGAGACGGAGTCACCTAGTGCAG”, the binding signal was 7560 fluorescence intensity (a.u.).
“ATGGGTTGTGCTGTTCTAGCTTCTATACGTGTCGAATCATCGGAGTCACCTAGTGCAG” was tested, and the binding signal was 5280 fluorescence intensity (a.u.).
With “GGCCGCTGTAGCGTGGGTGAGCGGGCCCGATCTGAGGTGGCGGAGTCACCTAGTGCAG” the binding signal was 3650 fluorescence intensity (a.u.).
With “TGGCACATTCTCATCGTATTTTCTTGTTGCTCTATGTATGCGGAGTCACCTAGTGCAG” the binding signal was 3180 fluorescence intensity (a.u.).
With “TTGACACTTATGCCCCTGCCACCTCACTGCAACCATGGTGCGGAGTCACCTAGTGCAG” the binding signal was 6340 fluorescence intensity (a.u.).
For “CGCCTTCCTCCCCACATCACCGCGGCTGCGCCCCAGTCCCCGGAGTCACCTAGTGCAG”, the binding signal was 4020 fluorescence intensity (a.u.).
“ATTCGGATTATTGAATCAGTGTATCAGCACACAACACAACCGGAGTCACCTAGTGCAG” was tested, and the binding signal was 36500 fluorescence intensity (a.u.).
“AGCCCTATTACTAGAGGGCGCGTGTCAGCCAGATCAGCACCGGAGTCACCTAGTGCAG” was tested, and the binding signal was 6900 fluorescence intensity (a.u.).
With “TTAATCTTATAATTACGGTCATGTGGTTTTGTGAAATTTACGGAGTCACCTAGTGCAG” the binding signal was 5500 fluorescence intensity (a.u.).
In the case of “TGCTTGCTCGCACGCTTGCTGCTGACTAGTAGCTCGCTAGCGGAGTCACCTAGTGCAG”, the binding signal is reported as 4850 fluorescence intensity (a.u.).
In the case of “TATGTGCAAATCAGATAATTCCGCGGTAACAAAGTCAGCGCGGAGTCACCTAGTGCAG”, the binding signal is reported as 3710 fluorescence intensity (a.u.).
For “CTAAGGCTTACAATGAATTGAAAGAATTCATAAATTTAATCGGAGTCACCTAGTGCAG”, the binding signal was 3450 fluorescence intensity (a.u.).
For “CCTCTGTCCTGTGGGCTCCCACCATTCTTGCTGCATGCTGCGGAGTCACCTAGTGCAG”, the binding signal was 3930 fluorescence intensity (a.u.).
With “CTCCTTTCTTCCTCCTCTGCAAGCCGCCGACGAGGCAAGCCGGAGTCACCTAGTGCAG” the binding signal was 3790 fluorescence intensity (a.u.).
For “TTCGTAGGATACTATCAAAATCAAGTAAGCTATCTATGATCGGAGTCACCTAGTGCAG”, the binding signal was 3140 fluorescence intensity (a.u.).
For “AACTTCAGGGCGTGACACCACTCCACCTCTTAAATTAAAGCGGAGTCACCTAGTGCAG”, the binding signal was 4140 fluorescence intensity (a.u.).
“AGTTGTGATGTCGCCACGTTGGCGGCCGGCGACTGCGCCACGGAGTCACCTAGTGCAG” was tested, and the binding signal was 12000 fluorescence intensity (a.u.).
With “GCTTGGCGTTCCCGTGGATGACGTCCGCGACGGCCTGGATCGGAGTCACCTAGTGCAG” the binding signal was 4620 fluorescence intensity (a.u.).
With “ATAAATGACCTAGCACTTCCCAACTCACTTATTTCTATTGCGGAGTCACCTAGTGCAG” the binding signal was 3440 fluorescence intensity (a.u.).
“TATATCCGTCACACGTGTGCGCCTCCCACCCATCCACCACCGGAGTCACCTAGTGCAG” was tested, and the binding signal was 8250 fluorescence intensity (a.u.).
With “TCAAACAAGAGTTCACCAAACCGCCCATGCGGCCATGCTGCGGAGTCACCTAGTGCAG” the binding signal was 17100 fluorescence intensity (a.u.).
For “CTTGACTACGAAATGTATTCGCTTGCTGACGACGTCTGCTCGGAGTCACCTAGTGCAG”, the binding signal was 5800 fluorescence intensity (a.u.).
With “ATTTACCACTGGACCTATGTATTATAGACACGTGAGGTCCCGGAGTCACCTAGTGCAG” the binding signal was 3270 fluorescence intensity (a.u.).
For “GTAGTTAGTTAGGTTGTTAGTCGTGTGAGCTGCATGTATACGGAGTCACCTAGTGCAG”, the binding signal was 3320 fluorescence intensity (a.u.).
For “TTCGGTGGTCACTCGTCAGTCGTGTCGTCTGCTCACGCTCCGGAGTCACCTAGTGCAG”, the binding signal was 4380 fluorescence intensity (a.u.).
For “ATAAAATCATGATACTCGGGATTTATGCGTCACTTGTGGCCGGAGTCACCTAGTGCAG”, the binding signal was 4770 fluorescence intensity (a.u.).
In the case of “CTACATTGGCACTCGTTTTCAGGATGGCGATGGCATCAATCGGAGTCACCTAGTGCAG”, the binding signal is reported as 17400 fluorescence intensity (a.u.).
With “TGGGAATTTTGCATGCGCGGCACGCTGATCACTTGCCAGTCGGAGTCACCTAGTGCAG” the binding signal was 3250 fluorescence intensity (a.u.).
For “TCGTCGACGCCGGCGTCACCACCATCCCCTACTTCTTCCGCGGAGTCACCTAGTGCAG”, the binding signal was 5250 fluorescence intensity (a.u.).
In the case of “TTTAATCTGCAGATTGTCCTGGTTCATCAGTATTGCTGTACGGAGTCACCTAGTGCAG”, the binding signal is reported as 20400 fluorescence intensity (a.u.).
For “GCGGCGGCCGGATCCGGCGAGCTTGCGGCGCCAGGCTAGGCGGAGTCACCTAGTGCAG”, the binding signal was 21700 fluorescence intensity (a.u.).
With “ATTCTAATGACACCTAAGTGCCACGTCAACGCCACGTGGACGGAGTCACCTAGTGCAG” the binding signal was 45100 fluorescence intensity (a.u.).
For “GCCCGCGCTGTGAGCGTCTAATGCACACCTTCACTCCGTGCGGAGTCACCTAGTGCAG”, the binding signal was 4800 fluorescence intensity (a.u.).
In the case of “ATTTTGTTAGTATCATAGTGCTAGTATCATCATTTTGCTGCGGAGTCACCTAGTGCAG”, the binding signal is reported as 3820 fluorescence intensity (a.u.).
For “TAAATGTCAGCTGATGCCAATAGTTTCTGTGCTGCTGCCACGGAGTCACCTAGTGCAG”, the binding signal was 27600 fluorescence intensity (a.u.).
For “ACCCACACACCCACACCCACACGTCAAAGACCCACGGTTTCGGAGTCACCTAGTGCAG”, the binding signal was 3160 fluorescence intensity (a.u.).
